According to patent US5418219A, “Pharmaceutical composition for treatment of adult respiratory distress syndrome containing human ANP” (Suntory Limited, priority 1992, dated 1995):

Tested on: pigs in which lung injury was induced
Experiment: Urine excretion in pigs with HCl-induced pulmonary injury
Details: pig

NS(=O)(=O)c1cc(C(=O)O)c(NCc2ccco2)cc1Cl [furosemide]
rate of urine excretion (30-60 min after HCl aspiration (before drug administration)): 1.08 ± 0.24 mL/h/kg | rate of urine excretion (30-60 min after the end of administration (150-180 min after HCl aspiration)): 1.62 ± 0.54 mL/h/kg | rate of urine excretion (first 30 min of administration (60-90 min after HCl aspiration), ANP 0.1 μg/kg/min i.v., furosemide 0.05 mg/kg i.v.): 6.6 ± 3.12 mL/h/kg
